Consider one molecule from patent publication US20160017004A1.

Results are given in words; binding and its absence hold for the method and conditions named. Some entries that bind do so weakly or less than the wild type.

The experiment concerns the target recombinant knob (without ELP) (adenovirus serotype 5) (UniProt P11818). Kind of experiment: non-denaturing PAGE at 4 C (self-association).

B1: recombinant knob (without ELP) (protein)
chain: GAITVGNKNNDKLTLWTTPAPSPNCRLNAEKDAKLTLVLTKCGSQILATVSVLAVKGSLAPISGTVQSAHLIIRFDENGVLLNNSFLDPEYWNFRNGDLTEGTAYTNAVGFMPNLSAYPKSHGKTAKSNIVSQVYLNGDKTKPVTLTITLNGTQETGDTTPSAYSMSFSWDWSGHNYINEIFATSSYTFSYIAQE
As for B1, the binding entry is “binds”.
